PubChem BioAssay AID1259308 – NCATS | 2017

Purpose: 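Genes whose loss raises luciferase production in HEK293 cells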 (primary screen)
Cell system: human HEK293 embryonic kidney cells stably expressing firefly luciferase (HEK-CMV-Luc2-Hygro)
Reagent: single siRNA against human genes, 0.8 pmol siRNA per well
Duration: 72 h
Read-out: 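Luciferase light (ONE-Glo) measured on one replicate plate set and viability (CellTiter-Glo) on the other, scaled to a negative control siRNA, with robust z-scores and luciferase per cell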
Scale: total luciferase, z-score: higher = more reporter protein produced
Hit rule: 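Active when the median/MAD z-score for overall luciferase is greater than 3; a gene was taken forward for validation with new siRNAs if at least two of its three siRNAs passed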
Meaning of the calls: active = raised luciferase; inactive = no rise
In all, the deposit lists about 59,000 reagents; below is a part drawn at random. Of all reagents, about 1,510 (2.6%) were called active. 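Calls use total luciferase alone and ignore viability, so some active siRNAs may act by altering cell number.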 The numbers tell different reagents against one gene apart. Not all columns of the deposit are shown.

For USP6 (ubiquitin specific peptidase 6) #1, the entry reads total luciferase, z-score 0.448; inactive.
After knock-down of USP6 (ubiquitin specific peptidase 6) #2 the results were total luciferase, z-score -0.95; inactive.
Depletion of USP6 (ubiquitin specific peptidase 6) #3 gave: total luciferase, z-score 0.106; inactive.
Knock-down of LOC440982 #1 gave: total luciferase, z-score 0.614; inactive.
After knock-down of LOC440982 #2, the record shows total luciferase, z-score -1.39; inactive.
Knock-down of LOC440982 #3 gave: total luciferase, z-score 0.395; inactive.
Depletion of VIRMA (vir like m6A methyltransferase associated) #1 gave: total luciferase, z-score -1.47; inactive.
Against VIRMA (vir like m6A methyltransferase associated) #2, the values are total luciferase, z-score -0.209; inactive.
For VIRMA (vir like m6A methyltransferase associated) #3, the entry reads total luciferase, z-score -1.96; inactive.
HSPA8P14 (heat shock protein family A (Hsp70) member 8 pseudogene 14) #1 scored total luciferase, z-score -0.224; inactive.
HSPA8P14 (heat shock protein family A (Hsp70) member 8 pseudogene 14) #2 showed total luciferase, z-score -0.434; inactive.
HSPA8P14 (heat shock protein family A (Hsp70) member 8 pseudogene 14) #3 scored total luciferase, z-score 0.168; inactive.
For SAXO2 (stabilizer of axonemal microtubules 2) #1, the entry reads total luciferase, z-score 0.699; inactive.
Silencing of SAXO2 (stabilizer of axonemal microtubules 2) #2 came out at: total luciferase, z-score 1; inactive.
With knock-down of SAXO2 (stabilizer of axonemal microtubules 2) #3, the record shows total luciferase, z-score -0.193; inactive.
Knock-down of DUSP1 (dual specificity phosphatase 1) #1 resulted in: total luciferase, z-score 1.08; inactive.
Knock-down of DUSP1 (dual specificity phosphatase 1) #2 came out at: total luciferase, z-score -0.551; inactive.
For DUSP1 (dual specificity phosphatase 1) #3 the deposit lists total luciferase, z-score -0.846; inactive.
ZCRB1 (zinc finger CCHC-type and RNA binding motif containing 1) #1 scored total luciferase, z-score 1.71; inactive.
Depletion of ZCRB1 (zinc finger CCHC-type and RNA binding motif containing 1) #2 gave: total luciferase, z-score -0.986; inactive.
Depletion of ZCRB1 (zinc finger CCHC-type and RNA binding motif containing 1) #3 gave: total luciferase, z-score 0.742; inactive.

Not a retest: entries from further up.
VIRMA (vir like m6A methyltransferase associated) #3 — total luciferase, z-score: -1.96; activity call: inactive
HSPA8P14 (heat shock protein family A (Hsp70) member 8 pseudogene 14) #1 — total luciferase, z-score: -0.224; activity call: inactive
HSPA8P14 (heat shock protein family A (Hsp70) member 8 pseudogene 14) #2 — total luciferase, z-score: -0.434; activity call: inactive
HSPA8P14 (heat shock protein family A (Hsp70) member 8 pseudogene 14) #3 — total luciferase, z-score: 0.168; activity call: inactive
SAXO2 (stabilizer of axonemal microtubules 2) #1 — total luciferase, z-score: 0.699; activity call: inactive

The listing continues:
With knock-down of AARS2 (alanyl-tRNA synthetase 2, mitochondrial) #1 the results were total luciferase, z-score 0.0528; inactive.
For AARS2 (alanyl-tRNA synthetase 2, mitochondrial) #2, the entry reads total luciferase, z-score -0.0845; inactive.
Knock-down of AARS2 (alanyl-tRNA synthetase 2, mitochondrial) #3 came out at: total luciferase, z-score -0.965; inactive.
Depletion of OXLD1 (oxidoreductase like domain containing 1) #1 came out at: total luciferase, z-score 0.594; inactive.
After knock-down of OXLD1 (oxidoreductase like domain containing 1) #2, the screen gave total luciferase, z-score 0.908; inactive.
Against OXLD1 (oxidoreductase like domain containing 1) #3 the deposit lists total luciferase, z-score -0.0924; inactive.
Depletion of GTPBP3 (GTP binding protein 3, mitochondrial) #1 gave: total luciferase, z-score -0.586; inactive.
GTPBP3 (GTP binding protein 3, mitochondrial) #2 gave total luciferase, z-score -0.186; inactive.
Against GTPBP3 (GTP binding protein 3, mitochondrial) #3 the deposit lists total luciferase, z-score -0.381; inactive.
With knock-down of TBC1D19 (TBC1 domain family member 19) #1, the record shows total luciferase, z-score 1.04; inactive.
TBC1D19 (TBC1 domain family member 19) #2 gave total luciferase, z-score -1.62; inactive.
TBC1D19 (TBC1 domain family member 19) #3 scored total luciferase, z-score -1.59; inactive.
